Consider 32 targets from the supplement of paper PMC10849652.

Amino acid sequences for entries named in this document (tags omitted). A change or cut given only in a name is not applied to a line headed by its entry.
UniProt Q9P2Y5: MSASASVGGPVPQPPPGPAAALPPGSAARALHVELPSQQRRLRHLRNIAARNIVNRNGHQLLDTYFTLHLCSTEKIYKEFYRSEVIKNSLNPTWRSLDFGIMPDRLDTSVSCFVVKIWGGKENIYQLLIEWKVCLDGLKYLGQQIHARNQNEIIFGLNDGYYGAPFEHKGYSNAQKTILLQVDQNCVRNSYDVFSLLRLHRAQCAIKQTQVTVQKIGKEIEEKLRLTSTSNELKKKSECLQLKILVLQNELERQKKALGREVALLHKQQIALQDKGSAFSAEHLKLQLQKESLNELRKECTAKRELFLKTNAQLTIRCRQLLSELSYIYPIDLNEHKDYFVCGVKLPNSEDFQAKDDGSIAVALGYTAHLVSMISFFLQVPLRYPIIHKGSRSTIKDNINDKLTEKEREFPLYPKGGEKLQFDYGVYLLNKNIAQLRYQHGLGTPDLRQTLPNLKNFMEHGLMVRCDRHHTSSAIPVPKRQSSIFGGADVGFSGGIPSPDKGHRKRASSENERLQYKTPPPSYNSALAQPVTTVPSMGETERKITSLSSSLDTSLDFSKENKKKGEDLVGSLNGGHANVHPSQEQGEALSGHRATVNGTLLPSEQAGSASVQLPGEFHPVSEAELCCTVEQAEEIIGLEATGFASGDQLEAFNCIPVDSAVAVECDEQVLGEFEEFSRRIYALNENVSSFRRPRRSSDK
UniProt P22415: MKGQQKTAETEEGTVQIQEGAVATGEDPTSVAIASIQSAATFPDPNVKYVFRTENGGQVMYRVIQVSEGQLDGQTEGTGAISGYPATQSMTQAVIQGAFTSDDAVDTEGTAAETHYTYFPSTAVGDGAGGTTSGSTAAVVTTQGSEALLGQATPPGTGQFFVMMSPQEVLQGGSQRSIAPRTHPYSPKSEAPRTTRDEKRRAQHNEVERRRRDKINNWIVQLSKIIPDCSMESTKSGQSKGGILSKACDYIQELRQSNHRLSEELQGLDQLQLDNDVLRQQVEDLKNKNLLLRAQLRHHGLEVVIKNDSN
UniProt Q9H9C1: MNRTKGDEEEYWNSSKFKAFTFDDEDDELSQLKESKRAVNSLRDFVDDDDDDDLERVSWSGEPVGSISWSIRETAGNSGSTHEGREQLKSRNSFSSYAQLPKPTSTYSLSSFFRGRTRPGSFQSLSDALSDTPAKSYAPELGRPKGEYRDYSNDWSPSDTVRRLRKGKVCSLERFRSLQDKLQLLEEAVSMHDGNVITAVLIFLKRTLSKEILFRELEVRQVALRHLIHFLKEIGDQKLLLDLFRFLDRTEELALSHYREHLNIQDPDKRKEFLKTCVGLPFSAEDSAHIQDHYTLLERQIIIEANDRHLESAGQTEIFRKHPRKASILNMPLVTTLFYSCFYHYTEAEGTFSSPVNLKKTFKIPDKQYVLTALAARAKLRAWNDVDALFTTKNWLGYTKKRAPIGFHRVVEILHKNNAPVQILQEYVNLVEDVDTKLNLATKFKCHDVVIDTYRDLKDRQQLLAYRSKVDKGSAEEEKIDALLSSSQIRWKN
UniProt Q9UKW4: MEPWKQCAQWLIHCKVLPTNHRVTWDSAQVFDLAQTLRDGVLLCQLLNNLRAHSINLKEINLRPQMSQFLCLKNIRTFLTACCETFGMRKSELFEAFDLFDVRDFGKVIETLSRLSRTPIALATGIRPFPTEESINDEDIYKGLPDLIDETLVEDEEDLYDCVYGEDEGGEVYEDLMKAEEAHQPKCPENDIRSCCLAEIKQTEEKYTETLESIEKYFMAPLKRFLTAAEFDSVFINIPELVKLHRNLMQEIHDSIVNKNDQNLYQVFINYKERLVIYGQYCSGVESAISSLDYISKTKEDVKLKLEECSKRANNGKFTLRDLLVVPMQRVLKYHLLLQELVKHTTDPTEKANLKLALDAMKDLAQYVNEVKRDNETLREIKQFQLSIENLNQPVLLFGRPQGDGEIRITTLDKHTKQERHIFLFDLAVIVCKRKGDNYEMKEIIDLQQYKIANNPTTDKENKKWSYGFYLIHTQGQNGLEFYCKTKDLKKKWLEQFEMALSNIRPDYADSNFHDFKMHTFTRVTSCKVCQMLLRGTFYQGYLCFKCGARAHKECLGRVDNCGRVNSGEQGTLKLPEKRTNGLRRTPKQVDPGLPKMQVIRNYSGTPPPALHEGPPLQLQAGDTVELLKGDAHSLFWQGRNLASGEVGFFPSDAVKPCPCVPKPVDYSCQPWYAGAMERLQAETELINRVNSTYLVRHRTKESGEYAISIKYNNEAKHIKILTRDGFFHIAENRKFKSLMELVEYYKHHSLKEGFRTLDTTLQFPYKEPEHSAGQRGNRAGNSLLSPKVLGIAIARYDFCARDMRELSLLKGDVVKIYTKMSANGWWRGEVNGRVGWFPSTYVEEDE
UniProt Q96JH7: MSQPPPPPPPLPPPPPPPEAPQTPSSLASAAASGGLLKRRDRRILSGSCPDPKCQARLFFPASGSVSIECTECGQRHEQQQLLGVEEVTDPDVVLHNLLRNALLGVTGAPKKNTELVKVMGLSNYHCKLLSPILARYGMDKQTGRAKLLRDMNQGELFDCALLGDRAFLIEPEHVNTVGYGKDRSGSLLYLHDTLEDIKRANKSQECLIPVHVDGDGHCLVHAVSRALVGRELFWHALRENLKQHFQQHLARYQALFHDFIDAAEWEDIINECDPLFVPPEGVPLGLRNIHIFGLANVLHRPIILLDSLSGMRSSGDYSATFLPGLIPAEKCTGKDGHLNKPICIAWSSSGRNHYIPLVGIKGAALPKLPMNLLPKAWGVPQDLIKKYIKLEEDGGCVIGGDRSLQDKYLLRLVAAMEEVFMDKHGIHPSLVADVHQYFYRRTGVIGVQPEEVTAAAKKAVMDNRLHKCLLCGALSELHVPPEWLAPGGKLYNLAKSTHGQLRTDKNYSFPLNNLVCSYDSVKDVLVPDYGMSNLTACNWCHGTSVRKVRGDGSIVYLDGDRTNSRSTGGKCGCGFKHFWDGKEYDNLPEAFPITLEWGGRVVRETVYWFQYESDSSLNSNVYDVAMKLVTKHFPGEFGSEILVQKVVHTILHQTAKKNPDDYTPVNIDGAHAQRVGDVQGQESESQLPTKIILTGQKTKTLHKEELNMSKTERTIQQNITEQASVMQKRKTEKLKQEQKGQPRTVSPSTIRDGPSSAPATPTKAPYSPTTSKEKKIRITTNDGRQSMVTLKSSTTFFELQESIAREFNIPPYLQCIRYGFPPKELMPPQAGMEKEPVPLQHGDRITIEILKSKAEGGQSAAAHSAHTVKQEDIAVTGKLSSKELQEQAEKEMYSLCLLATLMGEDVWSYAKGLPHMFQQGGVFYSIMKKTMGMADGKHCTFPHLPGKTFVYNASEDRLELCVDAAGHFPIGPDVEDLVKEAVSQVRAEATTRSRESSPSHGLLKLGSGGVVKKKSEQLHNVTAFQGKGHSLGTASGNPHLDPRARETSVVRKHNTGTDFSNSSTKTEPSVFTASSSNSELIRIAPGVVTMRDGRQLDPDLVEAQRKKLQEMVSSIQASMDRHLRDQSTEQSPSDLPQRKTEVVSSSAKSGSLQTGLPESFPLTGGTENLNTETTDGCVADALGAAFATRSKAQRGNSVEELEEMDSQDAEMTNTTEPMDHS
UniProt Q92890: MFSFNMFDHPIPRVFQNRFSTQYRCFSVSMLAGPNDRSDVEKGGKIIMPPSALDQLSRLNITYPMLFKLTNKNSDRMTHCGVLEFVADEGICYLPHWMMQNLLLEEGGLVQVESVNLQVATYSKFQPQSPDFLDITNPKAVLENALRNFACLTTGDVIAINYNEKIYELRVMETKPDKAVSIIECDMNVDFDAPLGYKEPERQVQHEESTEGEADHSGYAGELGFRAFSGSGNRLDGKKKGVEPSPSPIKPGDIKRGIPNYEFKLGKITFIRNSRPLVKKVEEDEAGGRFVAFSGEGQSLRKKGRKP
UniProt Q86UV5: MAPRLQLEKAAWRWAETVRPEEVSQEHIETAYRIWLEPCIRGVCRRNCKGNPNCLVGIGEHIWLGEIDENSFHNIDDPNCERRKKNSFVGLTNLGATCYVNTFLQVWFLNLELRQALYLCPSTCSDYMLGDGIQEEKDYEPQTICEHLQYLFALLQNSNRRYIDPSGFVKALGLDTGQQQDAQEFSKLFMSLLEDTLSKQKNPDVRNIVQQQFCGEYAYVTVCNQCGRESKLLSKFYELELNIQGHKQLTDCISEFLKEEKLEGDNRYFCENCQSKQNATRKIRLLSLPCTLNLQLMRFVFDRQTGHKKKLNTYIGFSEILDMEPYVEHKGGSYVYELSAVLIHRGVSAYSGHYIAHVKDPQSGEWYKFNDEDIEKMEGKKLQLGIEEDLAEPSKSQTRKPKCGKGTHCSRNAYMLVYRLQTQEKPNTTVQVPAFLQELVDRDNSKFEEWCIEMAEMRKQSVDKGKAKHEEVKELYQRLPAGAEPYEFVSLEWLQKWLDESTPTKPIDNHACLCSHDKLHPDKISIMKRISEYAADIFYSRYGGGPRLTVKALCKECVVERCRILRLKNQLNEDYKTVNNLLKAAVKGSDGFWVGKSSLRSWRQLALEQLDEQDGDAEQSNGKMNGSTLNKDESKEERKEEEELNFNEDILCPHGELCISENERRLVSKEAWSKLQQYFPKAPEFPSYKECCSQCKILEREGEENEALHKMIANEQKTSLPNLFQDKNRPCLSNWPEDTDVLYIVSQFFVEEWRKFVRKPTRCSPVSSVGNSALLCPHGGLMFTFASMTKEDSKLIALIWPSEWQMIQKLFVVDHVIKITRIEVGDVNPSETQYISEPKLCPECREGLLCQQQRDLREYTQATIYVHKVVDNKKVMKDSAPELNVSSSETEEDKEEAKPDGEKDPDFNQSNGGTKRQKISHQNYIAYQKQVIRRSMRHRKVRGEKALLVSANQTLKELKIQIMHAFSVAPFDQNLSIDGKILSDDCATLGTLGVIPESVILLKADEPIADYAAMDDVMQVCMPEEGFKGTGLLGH
UniProt Q8TAA9: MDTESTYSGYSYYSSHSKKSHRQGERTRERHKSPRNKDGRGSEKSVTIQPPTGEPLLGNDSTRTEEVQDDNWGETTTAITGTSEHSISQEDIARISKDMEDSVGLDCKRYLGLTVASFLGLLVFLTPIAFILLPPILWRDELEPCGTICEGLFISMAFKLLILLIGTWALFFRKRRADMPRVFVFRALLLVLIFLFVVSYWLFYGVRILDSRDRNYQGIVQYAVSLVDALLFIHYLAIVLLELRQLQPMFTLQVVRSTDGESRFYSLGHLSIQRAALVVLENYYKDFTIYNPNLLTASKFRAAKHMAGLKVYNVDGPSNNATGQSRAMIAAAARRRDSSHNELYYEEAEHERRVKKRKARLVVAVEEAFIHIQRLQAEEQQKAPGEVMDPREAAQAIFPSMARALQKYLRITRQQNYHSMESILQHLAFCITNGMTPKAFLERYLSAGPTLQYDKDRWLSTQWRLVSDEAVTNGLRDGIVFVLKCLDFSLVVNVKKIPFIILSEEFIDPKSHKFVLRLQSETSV
UniProt P15498: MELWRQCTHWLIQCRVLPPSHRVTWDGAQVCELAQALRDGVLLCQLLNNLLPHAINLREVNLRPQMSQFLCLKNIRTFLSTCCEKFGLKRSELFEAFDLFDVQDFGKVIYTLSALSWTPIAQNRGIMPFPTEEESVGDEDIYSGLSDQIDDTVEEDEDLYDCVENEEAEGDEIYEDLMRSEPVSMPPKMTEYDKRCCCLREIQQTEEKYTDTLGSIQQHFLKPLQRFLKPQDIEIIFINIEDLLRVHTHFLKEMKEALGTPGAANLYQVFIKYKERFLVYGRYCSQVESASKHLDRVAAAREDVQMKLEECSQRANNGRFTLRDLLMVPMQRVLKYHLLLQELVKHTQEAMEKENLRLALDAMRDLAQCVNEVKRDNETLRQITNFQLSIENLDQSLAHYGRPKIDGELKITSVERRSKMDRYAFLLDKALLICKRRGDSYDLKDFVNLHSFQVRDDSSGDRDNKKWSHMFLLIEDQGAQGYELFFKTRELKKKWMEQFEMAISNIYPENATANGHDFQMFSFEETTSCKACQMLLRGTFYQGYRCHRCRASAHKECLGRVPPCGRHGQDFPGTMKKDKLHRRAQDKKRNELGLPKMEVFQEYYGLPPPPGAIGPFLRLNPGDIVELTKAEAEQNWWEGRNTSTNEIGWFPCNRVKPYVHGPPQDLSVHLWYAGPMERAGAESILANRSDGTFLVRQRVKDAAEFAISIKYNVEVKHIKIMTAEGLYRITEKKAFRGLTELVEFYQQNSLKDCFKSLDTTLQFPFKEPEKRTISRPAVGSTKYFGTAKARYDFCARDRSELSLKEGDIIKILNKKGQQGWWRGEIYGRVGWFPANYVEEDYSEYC
UniProt P61758, whole entry, looked up: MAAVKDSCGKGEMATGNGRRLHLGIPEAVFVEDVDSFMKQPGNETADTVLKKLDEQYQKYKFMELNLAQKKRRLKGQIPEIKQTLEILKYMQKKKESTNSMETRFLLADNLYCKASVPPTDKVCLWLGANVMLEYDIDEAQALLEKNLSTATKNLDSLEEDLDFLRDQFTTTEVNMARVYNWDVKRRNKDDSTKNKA
UniProt P63027, whole entry, looked up: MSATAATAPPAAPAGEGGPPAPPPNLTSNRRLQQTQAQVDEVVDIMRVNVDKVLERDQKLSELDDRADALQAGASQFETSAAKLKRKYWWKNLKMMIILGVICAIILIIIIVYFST

The list shows a part of the results.

Compound in one experiment: CC(C)(O)CC(=O)NCCn1ccc2ncnc(Nc3ccc(Oc4cccc(C(F)(F)F)c4)c(Cl)c3)c21
Description: log2 fold change, soluble protein after heating vs DMSO (PISA); higher = thermal stabilisation; K562 lysate, 10 uM; active = over 0.2 and 3.5 SD of the protein, either way, in both replicates (recomputed). In a few lines: (§1)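 K562 pellets were dounce-homogenised in PBS pH 7.4 with 1 mM MgCl2, and the crude extract at 1 mg/mL protein was treated with 10 μM compound for 30 min. Aliquots were heated for 3 min across 48°C-58°C, pooled, and brought to 0.5% NP-40 at 4°C; soluble protein was the supernatant after 21,000xg for 90 min. Soluble protein was quantified by TMTpro 16plex LC-MS/MS with channel sums equalised, and reported as log2 fold change in thermal stability against DMSO controls, with values from duplicates.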
As for UVRAG (UniProt Q9P2Y5), the log2 fold change is inactive: -0.003.

Consider UNK (UniProt Q9C0B0), for which the log2 fold change was inactive: 0.085.

As to USF1 (UniProt P22415), the log2 fold change was inactive: 0.06.

As for UQCRB (UniProt P14927), the log2 fold change was inactive: -0.052.

Regarding VASP (UniProt P50552), the log2 fold change was inactive: -0.018.

For USP11 (UniProt P51784), the log2 fold change is inactive: 0.004.

With USP3 (UniProt Q9Y6I4), the log2 fold change is inactive: -0.027.

For VIPAS39 (UniProt Q9H9C1), the log2 fold change is inactive: -0.093.

Regarding UTP14A (UniProt Q9BVJ6), the log2 fold change was inactive: 0.009.

For the target VAV3 isoform 4 (UniProt Q9UKW4), the log2 fold change was inactive: -0.013.

As to VIRMA (UniProt Q69YN4), the log2 fold change was inactive: -0.039.

As to UTP6 (UniProt Q9NYH9), the log2 fold change was inactive: -0.065.

VCPIP1 (UniProt Q96JH7): the log2 fold change was inactive: 0.011.

Turning to VARS (UniProt P26640), the log2 fold change was inactive: 0.018.

Regarding UFD1 isoform 1 (UniProt Q92890), the log2 fold change is inactive: -0.003.

Consider USP13 (UniProt Q92995), for which the log2 fold change is inactive: -0.028.

Regarding VCP (UniProt P55072), the log2 fold change was inactive: -0.007.

With USP48 (UniProt Q86UV5), the log2 fold change was inactive: 0.031.

Take UTP15 (UniProt Q8TED0): the log2 fold change is inactive: -0.037.

Turning to VANGL1 (UniProt Q8TAA9), the log2 fold change is inactive: 0.183.

On to VAV1 (UniProt P15498), for which the log2 fold change was inactive: -0.042.

In the case of UTP4 (UniProt Q969X6), the log2 fold change was inactive: 0.001.

Consider UPRT (UniProt Q96BW1), for which the log2 fold change is inactive: -0.091.

In the case of USP8 (UniProt P40818), the log2 fold change is inactive: -0.014.

Turning to VBP1 (UniProt P61758), the log2 fold change is inactive: 0.014.

Consider VEZF1 (UniProt Q14119), for which the log2 fold change was inactive: 0.048.

In the case of ULBP1 (UniProt Q9BZM6), the log2 fold change was inactive: -0.047.

UQCR11 (UniProt O14957): the log2 fold change was inactive: -0.005.

For the target USP10 isoform 2 (UniProt Q14694), the log2 fold change was inactive: -0.014.

Regarding VAPA (UniProt Q9P0L0), the log2 fold change was inactive: 0.094.

Regarding UXT isoform 2 (UniProt Q9UBK9), the log2 fold change was inactive: -0.075.

Consider VAMP2 (UniProt P63027), for which the log2 fold change is inactive: -0.006.

Compound in another experiment: CC(C)C1=C2N=C(C=C(N2N=C1)NCC3=CC=CC=C3)NCCCCCCN
The description is as above. The essentials: as §1
In the case of UVRAG (UniProt Q9P2Y5), the log2 fold change is inactive: -0.01.

As for UNK (UniProt Q9C0B0), the log2 fold change was inactive: -0.071.

As for USF1 (UniProt P22415), the log2 fold change was inactive: -0.007.

UQCRB (UniProt P14927): the log2 fold change is inactive: 0.015.

With VASP (UniProt P50552), the log2 fold change was inactive: -0.009.

For USP11 (UniProt P51784), the log2 fold change was inactive: 0.042.

With USP3 (UniProt Q9Y6I4), the log2 fold change is inactive: 0.014.

VIPAS39 (UniProt Q9H9C1): the log2 fold change was inactive: -0.045.

UTP14A (UniProt Q9BVJ6): the log2 fold change is inactive: -0.076.

Consider VAV3 isoform 4 (UniProt Q9UKW4), for which the log2 fold change was inactive: -0.028.

As to VIRMA (UniProt Q69YN4), the log2 fold change is inactive: 0.005.

Turning to UTP6 (UniProt Q9NYH9), the log2 fold change was inactive: 0.255.

On to VCPIP1 (UniProt Q96JH7), for which the log2 fold change was inactive: -0.029.

As to VARS (UniProt P26640), the log2 fold change was inactive: 0.032.

For the target UFD1 isoform 1 (UniProt Q92890), the log2 fold change is inactive: -0.018.

In the case of USP13 (UniProt Q92995), the log2 fold change was inactive: 0.007.

As to VCP (UniProt P55072), the log2 fold change is inactive: 0.005.

Regarding USP48 (UniProt Q86UV5), the log2 fold change was inactive: -0.009.

For the target UTP15 (UniProt Q8TED0), the log2 fold change was inactive: 0.004.

As to VANGL1 (UniProt Q8TAA9), the log2 fold change is inactive: 0.037.

Regarding VAV1 (UniProt P15498), the log2 fold change was inactive: 0.009.

As to UTP4 (UniProt Q969X6), the log2 fold change is inactive: -0.03.

As to UPRT (UniProt Q96BW1), the log2 fold change was inactive: 0.026.

With USP8 (UniProt P40818), the log2 fold change is inactive: 0.015.

Regarding VBP1 (UniProt P61758), the log2 fold change was inactive: -0.017.

VEZF1 (UniProt Q14119): the log2 fold change was inactive: -0.115.

As to ULBP1 (UniProt Q9BZM6), the log2 fold change is inactive: 0.025.

Take UQCR11 (UniProt O14957): the log2 fold change is inactive: 0.001.

As to USP10 isoform 2 (UniProt Q14694), the log2 fold change was inactive: -0.006.

Take VAPA (UniProt Q9P0L0): the log2 fold change is inactive: 0.012.

Turning to UXT isoform 2 (UniProt Q9UBK9), the log2 fold change is inactive: 0.006.

VAMP2 (UniProt P63027): the log2 fold change was inactive: -0.036.

Compound in a further experiment: CC1=C(C(CC(=O)N1)C2=CC=C(C=C2)C(F)(F)F)C(=O)NC3=C(C=C4C(=C3)C=NN4)F
The experiment is described as above. In a few lines:
as §1
UVRAG (UniProt Q9P2Y5): the log2 fold change was inactive: 0.04.

With UNK (UniProt Q9C0B0), the log2 fold change is inactive: 0.018.

Regarding USF1 (UniProt P22415), the log2 fold change is inactive: 0.065.

As to UQCRB (UniProt P14927), the log2 fold change was inactive: -0.013.

With VASP (UniProt P50552), the log2 fold change is inactive: -0.007.

For the target USP11 (UniProt P51784), the log2 fold change was inactive: 0.033.

For USP3 (UniProt Q9Y6I4), the log2 fold change was inactive: 0.024.

Consider VIPAS39 (UniProt Q9H9C1), for which the log2 fold change is inactive: -0.059.

On to UTP14A (UniProt Q9BVJ6), for which the log2 fold change is inactive: -0.004.

As to VAV3 isoform 4 (UniProt Q9UKW4), the log2 fold change was inactive: -0.013.

Turning to VIRMA (UniProt Q69YN4), the log2 fold change is inactive: 0.029.

Take UTP6 (UniProt Q9NYH9): the log2 fold change is inactive: 0.043.

Regarding VCPIP1 (UniProt Q96JH7), the log2 fold change is inactive: -0.021.

In the case of VARS (UniProt P26640), the log2 fold change was inactive: 0.006.

As to UFD1 isoform 1 (UniProt Q92890), the log2 fold change is inactive: 0.008.

As to USP13 (UniProt Q92995), the log2 fold change was inactive: 0.007.

As to VCP (UniProt P55072), the log2 fold change was inactive: -0.018.

Take USP48 (UniProt Q86UV5): the log2 fold change was inactive: 0.018.

With UTP15 (UniProt Q8TED0), the log2 fold change was inactive: 0.031.

For VANGL1 (UniProt Q8TAA9), the log2 fold change is inactive: 0.007.

For VAV1 (UniProt P15498), the log2 fold change is inactive: -0.004.

Turning to UTP4 (UniProt Q969X6), the log2 fold change is inactive: -0.02.

In the case of UPRT (UniProt Q96BW1), the log2 fold change is inactive: 0.012.

For the target USP8 (UniProt P40818), the log2 fold change is inactive: 0.004.

As to VBP1 (UniProt P61758), the log2 fold change was inactive: -0.035.

Turning to VEZF1 (UniProt Q14119), the log2 fold change was inactive: -0.102.

Take ULBP1 (UniProt Q9BZM6): the log2 fold change was inactive: -0.021.

Turning to UQCR11 (UniProt O14957), the log2 fold change is inactive: -0.085.

USP10 isoform 2 (UniProt Q14694): the log2 fold change is inactive: -0.025.

On to VAPA (UniProt Q9P0L0), for which the log2 fold change is inactive: -0.068.

On to UXT isoform 2 (UniProt Q9UBK9), for which the log2 fold change is inactive: -0.035.

Turning to VAMP2 (UniProt P63027), the log2 fold change was inactive: -0.069.
